These results are taken from article PMC7327512.

Chains of the proteins cited; added tags and fusions are not shown. Lines headed by an entry give the natural chain unless they say otherwise; changes in a name come on top.
UniProt O15230: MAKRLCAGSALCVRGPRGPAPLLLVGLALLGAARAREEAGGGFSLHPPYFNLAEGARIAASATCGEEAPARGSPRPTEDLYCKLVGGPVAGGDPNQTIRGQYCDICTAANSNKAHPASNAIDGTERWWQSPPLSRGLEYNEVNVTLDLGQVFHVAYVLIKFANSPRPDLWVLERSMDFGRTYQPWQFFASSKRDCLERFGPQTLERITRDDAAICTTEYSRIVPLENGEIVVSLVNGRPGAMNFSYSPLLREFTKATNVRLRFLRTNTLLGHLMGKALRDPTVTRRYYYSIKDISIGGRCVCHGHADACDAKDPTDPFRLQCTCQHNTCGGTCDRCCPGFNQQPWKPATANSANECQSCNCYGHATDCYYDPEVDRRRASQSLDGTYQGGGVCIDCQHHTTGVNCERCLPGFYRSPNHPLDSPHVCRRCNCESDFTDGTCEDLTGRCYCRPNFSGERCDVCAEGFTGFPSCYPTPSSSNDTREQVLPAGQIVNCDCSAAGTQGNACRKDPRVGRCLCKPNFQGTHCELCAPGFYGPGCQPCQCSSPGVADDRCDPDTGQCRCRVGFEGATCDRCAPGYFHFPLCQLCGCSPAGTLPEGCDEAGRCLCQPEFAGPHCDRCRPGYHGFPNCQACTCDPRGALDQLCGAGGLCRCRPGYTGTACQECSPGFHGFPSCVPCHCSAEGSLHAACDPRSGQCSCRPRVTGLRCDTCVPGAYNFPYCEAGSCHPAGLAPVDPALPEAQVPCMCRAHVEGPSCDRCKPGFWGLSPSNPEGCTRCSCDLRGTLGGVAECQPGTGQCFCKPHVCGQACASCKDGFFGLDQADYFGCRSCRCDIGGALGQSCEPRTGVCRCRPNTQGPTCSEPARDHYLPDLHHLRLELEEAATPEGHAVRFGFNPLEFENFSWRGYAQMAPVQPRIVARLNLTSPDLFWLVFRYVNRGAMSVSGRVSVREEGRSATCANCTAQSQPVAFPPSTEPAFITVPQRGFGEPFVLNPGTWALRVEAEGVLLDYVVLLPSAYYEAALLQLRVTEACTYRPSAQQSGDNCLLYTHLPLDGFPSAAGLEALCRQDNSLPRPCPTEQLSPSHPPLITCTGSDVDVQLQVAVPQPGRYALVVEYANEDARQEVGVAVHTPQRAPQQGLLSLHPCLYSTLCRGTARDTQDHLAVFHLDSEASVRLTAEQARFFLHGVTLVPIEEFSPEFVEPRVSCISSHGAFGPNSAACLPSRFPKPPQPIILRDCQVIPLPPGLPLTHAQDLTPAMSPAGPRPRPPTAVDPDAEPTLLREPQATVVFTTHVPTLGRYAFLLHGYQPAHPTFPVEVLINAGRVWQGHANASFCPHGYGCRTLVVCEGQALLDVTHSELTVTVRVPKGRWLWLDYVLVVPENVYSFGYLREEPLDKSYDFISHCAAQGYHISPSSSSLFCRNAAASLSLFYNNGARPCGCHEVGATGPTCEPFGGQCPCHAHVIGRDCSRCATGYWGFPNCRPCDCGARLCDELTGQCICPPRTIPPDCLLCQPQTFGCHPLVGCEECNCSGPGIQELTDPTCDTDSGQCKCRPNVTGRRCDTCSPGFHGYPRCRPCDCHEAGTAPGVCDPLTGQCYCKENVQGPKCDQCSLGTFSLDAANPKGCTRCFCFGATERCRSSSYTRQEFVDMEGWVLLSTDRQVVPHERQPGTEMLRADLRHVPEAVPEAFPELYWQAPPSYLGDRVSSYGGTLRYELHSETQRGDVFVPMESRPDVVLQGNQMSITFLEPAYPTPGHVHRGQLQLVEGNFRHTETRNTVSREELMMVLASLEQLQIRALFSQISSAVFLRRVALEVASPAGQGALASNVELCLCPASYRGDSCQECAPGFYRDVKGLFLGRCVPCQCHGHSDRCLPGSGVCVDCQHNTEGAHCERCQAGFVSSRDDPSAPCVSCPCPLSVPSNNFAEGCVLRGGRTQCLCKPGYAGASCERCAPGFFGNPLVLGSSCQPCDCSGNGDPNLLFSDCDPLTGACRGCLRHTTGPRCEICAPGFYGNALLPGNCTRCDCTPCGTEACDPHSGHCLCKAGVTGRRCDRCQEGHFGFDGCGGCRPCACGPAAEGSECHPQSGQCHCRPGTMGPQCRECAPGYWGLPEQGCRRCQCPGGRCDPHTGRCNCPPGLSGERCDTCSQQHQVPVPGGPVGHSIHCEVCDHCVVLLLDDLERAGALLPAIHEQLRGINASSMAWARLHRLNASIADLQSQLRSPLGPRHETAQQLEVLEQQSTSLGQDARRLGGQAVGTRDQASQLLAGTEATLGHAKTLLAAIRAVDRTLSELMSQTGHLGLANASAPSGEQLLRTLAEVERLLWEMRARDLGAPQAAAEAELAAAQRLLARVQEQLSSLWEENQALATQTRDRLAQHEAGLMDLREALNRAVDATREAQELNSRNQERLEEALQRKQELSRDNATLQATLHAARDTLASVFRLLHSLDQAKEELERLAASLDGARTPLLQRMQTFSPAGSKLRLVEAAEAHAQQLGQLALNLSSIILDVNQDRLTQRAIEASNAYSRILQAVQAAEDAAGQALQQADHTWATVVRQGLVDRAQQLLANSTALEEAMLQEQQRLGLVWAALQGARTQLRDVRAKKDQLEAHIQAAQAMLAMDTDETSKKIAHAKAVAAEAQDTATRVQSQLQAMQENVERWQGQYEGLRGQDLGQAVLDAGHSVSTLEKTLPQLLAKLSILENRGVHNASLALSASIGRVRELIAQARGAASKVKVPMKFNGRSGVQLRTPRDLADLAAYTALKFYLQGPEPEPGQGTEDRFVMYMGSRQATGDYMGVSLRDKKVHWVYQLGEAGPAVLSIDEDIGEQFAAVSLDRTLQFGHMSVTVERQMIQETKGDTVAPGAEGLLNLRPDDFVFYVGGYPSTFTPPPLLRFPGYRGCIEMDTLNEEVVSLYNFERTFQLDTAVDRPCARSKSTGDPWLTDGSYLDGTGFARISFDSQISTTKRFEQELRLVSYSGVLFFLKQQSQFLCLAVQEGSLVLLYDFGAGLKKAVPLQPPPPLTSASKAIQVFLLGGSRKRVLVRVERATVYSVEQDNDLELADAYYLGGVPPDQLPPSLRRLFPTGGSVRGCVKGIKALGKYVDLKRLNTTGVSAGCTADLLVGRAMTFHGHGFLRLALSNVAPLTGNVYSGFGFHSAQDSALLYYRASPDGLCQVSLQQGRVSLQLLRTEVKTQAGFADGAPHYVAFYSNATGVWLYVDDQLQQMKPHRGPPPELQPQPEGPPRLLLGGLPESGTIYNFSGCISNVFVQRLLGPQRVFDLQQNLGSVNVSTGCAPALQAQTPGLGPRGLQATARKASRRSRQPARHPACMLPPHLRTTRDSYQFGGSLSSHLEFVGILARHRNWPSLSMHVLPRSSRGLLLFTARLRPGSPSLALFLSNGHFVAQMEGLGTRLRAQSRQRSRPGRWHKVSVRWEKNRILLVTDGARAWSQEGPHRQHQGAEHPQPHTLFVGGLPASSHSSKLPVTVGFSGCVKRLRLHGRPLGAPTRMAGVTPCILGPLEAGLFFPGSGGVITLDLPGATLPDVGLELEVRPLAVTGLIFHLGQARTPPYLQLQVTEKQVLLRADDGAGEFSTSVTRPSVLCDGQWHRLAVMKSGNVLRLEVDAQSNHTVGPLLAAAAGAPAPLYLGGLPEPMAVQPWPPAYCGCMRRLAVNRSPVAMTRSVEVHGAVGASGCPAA
UniProt P55268: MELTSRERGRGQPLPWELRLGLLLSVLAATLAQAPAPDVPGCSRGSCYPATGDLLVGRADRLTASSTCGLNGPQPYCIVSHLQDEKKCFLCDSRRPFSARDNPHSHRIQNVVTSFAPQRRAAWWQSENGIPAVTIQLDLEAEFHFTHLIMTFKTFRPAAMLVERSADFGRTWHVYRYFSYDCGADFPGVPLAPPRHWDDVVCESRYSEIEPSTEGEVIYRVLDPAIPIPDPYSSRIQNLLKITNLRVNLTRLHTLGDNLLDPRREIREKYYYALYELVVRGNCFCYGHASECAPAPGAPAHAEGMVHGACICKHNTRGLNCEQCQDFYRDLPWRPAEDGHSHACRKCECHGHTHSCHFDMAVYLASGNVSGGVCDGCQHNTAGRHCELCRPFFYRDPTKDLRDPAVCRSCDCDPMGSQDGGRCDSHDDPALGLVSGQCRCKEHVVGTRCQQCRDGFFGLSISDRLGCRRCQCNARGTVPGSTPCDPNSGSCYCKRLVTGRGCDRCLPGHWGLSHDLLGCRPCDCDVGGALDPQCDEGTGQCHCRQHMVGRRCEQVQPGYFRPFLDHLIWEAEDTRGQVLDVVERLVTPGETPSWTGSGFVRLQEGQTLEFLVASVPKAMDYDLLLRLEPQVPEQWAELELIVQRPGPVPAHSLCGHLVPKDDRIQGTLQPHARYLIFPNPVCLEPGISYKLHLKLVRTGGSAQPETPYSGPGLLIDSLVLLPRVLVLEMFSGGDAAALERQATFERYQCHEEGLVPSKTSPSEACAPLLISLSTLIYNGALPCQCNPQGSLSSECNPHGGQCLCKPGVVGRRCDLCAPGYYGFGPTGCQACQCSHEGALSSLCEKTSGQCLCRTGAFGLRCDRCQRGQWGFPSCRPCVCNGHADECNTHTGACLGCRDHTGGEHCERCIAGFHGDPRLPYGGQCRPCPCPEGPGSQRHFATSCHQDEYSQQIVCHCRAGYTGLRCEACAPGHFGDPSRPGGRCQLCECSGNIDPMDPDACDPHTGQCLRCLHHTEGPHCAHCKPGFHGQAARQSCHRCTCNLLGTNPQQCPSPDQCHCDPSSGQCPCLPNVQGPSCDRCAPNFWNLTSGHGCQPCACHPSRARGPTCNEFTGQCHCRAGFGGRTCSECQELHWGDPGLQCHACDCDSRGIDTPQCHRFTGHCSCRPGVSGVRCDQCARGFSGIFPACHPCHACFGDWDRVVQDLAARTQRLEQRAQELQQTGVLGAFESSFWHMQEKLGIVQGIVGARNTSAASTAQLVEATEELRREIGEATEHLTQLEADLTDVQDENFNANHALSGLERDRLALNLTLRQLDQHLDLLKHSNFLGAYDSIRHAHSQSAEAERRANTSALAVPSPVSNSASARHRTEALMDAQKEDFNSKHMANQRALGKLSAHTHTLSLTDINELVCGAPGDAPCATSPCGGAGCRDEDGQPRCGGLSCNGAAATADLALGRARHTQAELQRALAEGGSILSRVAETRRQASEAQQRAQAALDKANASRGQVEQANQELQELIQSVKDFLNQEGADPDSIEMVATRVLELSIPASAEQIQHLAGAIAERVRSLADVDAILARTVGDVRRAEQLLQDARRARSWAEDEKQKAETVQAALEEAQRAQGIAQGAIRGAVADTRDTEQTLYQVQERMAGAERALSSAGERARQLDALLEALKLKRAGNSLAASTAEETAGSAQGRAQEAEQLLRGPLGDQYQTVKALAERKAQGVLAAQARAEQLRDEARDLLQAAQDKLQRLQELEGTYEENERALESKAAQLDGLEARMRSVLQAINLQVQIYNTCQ

Assay [1] has as its target recombinant human laminin-511 (laminin α5β1γ1) (human) (UniProt O15230+P07942+P11047). The assay is described as follows: ligand affinity purification of integrin adhesion complexes, western blot; podocytes spread on dishes coated with ECM ligand or apotransferrin (10 μg/ml); cross-linker DTBP 6 mM for 3 min; cell bodies removed with Triton X-100 extraction buffer and water wash; complexes left bound to the substrate resolved by SDS-PAGE and blotted; only the target purified.

Assay [2] has as its target recombinant human laminin-521 (laminin α5β2γ1) (human) (UniProt O15230+P55268+P11047). The description is as above.

No constants are given. Whether binding was seen depends on the method and setting. Sequences can lack the tags named with a protein.

B1: Bcl-2 homologous antagonist/killer (protein, UniProt Q16611 1-211)
chain: MASGQGPGPPRQECGEPALPSASEEQVAQDTEEVFRSYVFYRHQQEQEAEGVAAPADPEMVTLPLQPSSTMGQVGRQLAIIGDDINRRYDSEFQTMLQHLQPTAENAYEYFTKIATSLFESGINWGRVVALLGFGYRLALHVYQHGLTGFLGQVTRFVVDFMLHHCIARWIAQRGGWVAALNLGNGPILNVLVVLGVVLLGQFVVRRFFKS
As to B1, the binding result in assay [1] and in assay [2] was “no binding” throughout.
